Measurements: US4590166A, “Method for separating and measuring the amount of polar compounds and their metabolites in aqueous solutions” (priority 1983, dated 1986)

Key:
[1] = recovery of pyridostigmine bromide added to human plasma (Sep-Pak/LC); details: for Pyridostigmine found: 5 ml human plasma, average of 3 determinations; for Recoveries from plasma: human plasma
[2] = recovery of pyridostigmine bromide from glass cartridges containing Corasil II and Sep-Pak C18-silica; details: for Acetate-methanol (1 ml), first / Acetate-methanol (1 ml), second / Acetate-methanol (1 ml), third / Methanol wash (5 ml) / Sample eluate (5 ml) / Water wash (5 ml): 45 μg added
[3] = recovery of pyridostigmine from aqueous salt solutions by Sep-Pak and LC (influence of inorganic ions)
[4] = phosphate buffer, 58.2 μg added
[5] = sodium bromide solution, 58.8 μg added
[6] = sodium chloride solution, 59.2 μg added

Question: For CN(C)C(=O)Oc1ccc[n+](C)c1 [pyridostigmine], which Pyridostigmine found ([1]; 39 ng/ml added) is on record?
Answer: 35 ng/mL

Question: And the Pyridostigmine found ([1]; 78 ng/ml added)?
Answer: 71 ng/mL

Question: What about the Pyridostigmine found ([1]; 100 ng/ml added) of the same compound?
Answer: 107 ng/mL

Question: And the Pyridostigmine found ([1]; 156 ng/ml added)?
Answer: 153 ng/mL

Question: And the Pyridostigmine found ([1]; 313 ng/ml added)?
Answer: 305 ng/mL

Question: And the Pyridostigmine found ([1]; 400 ng/ml added)?
Answer: 390 ng/mL

Question: What about the Pyridostigmine found ([1]; 625 ng/ml added) of the same compound?
Answer: 625 ng/mL

Question: And the Pyridostigmine found ([1]; 1250 ng/ml added)?
Answer: 1312 ng/mL

Question: What about the Pyridostigmine found ([1]; 4000 ng/ml added) of the same compound?
Answer: 4330 ng/mL

Question: What about the Recoveries from plasma ([1]; 40-100 ng/ml level) of the same compound?
Answer: 90-95%

Question: And the Recoveries from plasma ([1]; 100-5000 ng/ml level)?
Answer: 95-100%

Question: What about the “% Recovery” value ([2]; Corasil II (aqueous)) of the same compound?
Answer: 2%

Question: And the “Acetate-methanol (1 ml), first” value ([2]; Corasil II (aqueous))?
Answer: 0 µg

Question: And the “Acetate-methanol (1 ml), second” value ([2]; Corasil II (aqueous))?
Answer: 0.4 µg

Question: And the “Acetate-methanol (1 ml), third” value ([2]; Corasil II (aqueous))?
Answer: 0.6 µg

Question: What about the “Methanol wash (5 ml)” value ([2]; Corasil II (aqueous)) of the same compound?
Answer: 0 µg

Question: And the “Sample eluate (5 ml)” value ([2]; Corasil II (aqueous))?
Answer: 0 µg

Question: What about the “Water wash (5 ml)” value ([2]; Corasil II (aqueous)) of the same compound?
Answer: 0 µg

Question: And the “% Recovery” value ([2]; Corasil II (pH 10.5))?
Answer: 30%

Question: What about the “Acetate-methanol (1 ml), first” value ([2]; Corasil II (pH 10.5)) of the same compound?
Answer: 6.8 µg

Question: And the “Acetate-methanol (1 ml), second” value ([2]; Corasil II (pH 10.5))?
Answer: 4.1 µg

Question: And the “Acetate-methanol (1 ml), third” value ([2]; Corasil II (pH 10.5))?
Answer: 2.6 µg

Question: What about the “Methanol wash (5 ml)” value ([2]; Corasil II (pH 10.5)) of the same compound?
Answer: 0 µg

Question: What about the “Sample eluate (5 ml)” value ([2]; Corasil II (pH 10.5)) of the same compound?
Answer: 0 µg

Question: What about the “Water wash (5 ml)” value ([2]; Corasil II (pH 10.5)) of the same compound?
Answer: 0.5 µg

Question: And the “% Recovery” value ([2]; Sep-Pak (pH 10.5))?
Answer: 103%

Question: What about the “Acetate-methanol (1 ml), first” value ([2]; Sep-Pak (pH 10.5)) of the same compound?
Answer: 31.8 µg

Question: What about the “Acetate-methanol (1 ml), second” value ([2]; Sep-Pak (pH 10.5)) of the same compound?
Answer: 12.7 µg

Question: And the “Acetate-methanol (1 ml), third” value ([2]; Sep-Pak (pH 10.5))?
Answer: 1.7 µg

Question: What about the “Methanol wash (5 ml)” value ([2]; Sep-Pak (pH 10.5)) of the same compound?
Answer: 0.4 µg

Question: And the “Sample eluate (5 ml)” value ([2]; Sep-Pak (pH 10.5))?
Answer: 0.2 µg

Question: What about the “Water wash (5 ml)” value ([2]; Sep-Pak (pH 10.5)) of the same compound?
Answer: 0.9 µg

Question: And the “isolation and quantitation in aqueous sodium hydroxide and sodium carbonate” value ([3]; pH 10-10.5)?
Answer: quantitative and nearly quantitative

Question: And the “recovery from aqueous solutions (not urine)” value ([3]; pH values 8-9.5)?
Answer: can be recovered quantitatively

Question: What about the “% Recovery, acetate-methanol” value ([3]; phosphate buffer) of the same compound?
Answer: 101.7%

Question: What about the “% Recovery, total” value ([3]; phosphate buffer) of the same compound?
Answer: 101.9%

Question: And the “Acetate-methanol (1 ml), first” value [3, 4]?
Answer: 57.1 µg

Question: What about the “Acetate-methanol (1 ml), second” value [3, 4] of the same compound?
Answer: 2.2 µg

Question: And the “Alcohol wash (5 ml)” value [3, 4]?
Answer: 0 µg

Question: What about the “Sample eluate (3 ml)” value [3, 4] of the same compound?
Answer: 0 µg

Question: And the “Water wash (5 ml)” value [3, 4]?
Answer: 0 µg

Question: What about the “% Recovery, acetate-methanol” value ([3]; sodium bromide solution) of the same compound?
Answer: 38.1%

Question: And the “% Recovery, total” value ([3]; sodium bromide solution)?
Answer: 82.1%

Question: What about the “Acetate-methanol (1 ml), first” value [3, 5] of the same compound?
Answer: 18.7 µg

Question: And the “Acetate-methanol (1 ml), second” value [3, 5]?
Answer: 3.7 µg

Question: And the “Alcohol wash (5 ml)” value [3, 5]?
Answer: 25.9 µg

Question: And the “Sample eluate (3 ml)” value [3, 5]?
Answer: 0 µg

Question: And the “Water wash (5 ml)” value [3, 5]?
Answer: 0 µg

Question: What about the “% Recovery, acetate-methanol” value ([3]; sodium chloride solution) of the same compound?
Answer: 46.3%

Question: What about the “% Recovery, total” value ([3]; sodium chloride solution) of the same compound?
Answer: 103.1%

Question: What about the “Acetate-methanol (1 ml), first” value [3, 6] of the same compound?
Answer: 23.4 µg

Question: What about the “Acetate-methanol (1 ml), second” value [3, 6] of the same compound?
Answer: 4.0 µg

Question: What about the “Alcohol wash (5 ml)” value [3, 6] of the same compound?
Answer: 30.9 µg

Question: What about the “Sample eluate (3 ml)” value [3, 6] of the same compound?
Answer: 1.6 µg

Question: And the “Water wash (5 ml)” value [3, 6]?
Answer: 1.7 µg
